In article PMC11192891:
These are yes or no findings as the source states them, for the method shown. Binding seen in cells or lysates may run through a third protein. Some entries that bind do so weakly or less than the wild type.

Sequences of proteins named here, by UniProt entry; tags and fusion partners are left off. Residues count along the entry.
HA-JAK1-JH2 (JAK1 JH2 pseudokinase domain) (P23458, residues 545-855): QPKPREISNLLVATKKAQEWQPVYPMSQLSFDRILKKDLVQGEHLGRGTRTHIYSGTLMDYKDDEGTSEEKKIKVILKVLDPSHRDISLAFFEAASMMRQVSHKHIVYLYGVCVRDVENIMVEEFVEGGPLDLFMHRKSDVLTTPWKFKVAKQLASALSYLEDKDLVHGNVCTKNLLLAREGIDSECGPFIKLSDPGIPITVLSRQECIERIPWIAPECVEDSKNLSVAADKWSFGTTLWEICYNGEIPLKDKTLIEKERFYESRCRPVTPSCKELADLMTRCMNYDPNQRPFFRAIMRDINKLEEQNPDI
Flag-JAK1-JH1 (JAK1 JH1 tyrosine kinase domain) (P23458, residues 856-1154): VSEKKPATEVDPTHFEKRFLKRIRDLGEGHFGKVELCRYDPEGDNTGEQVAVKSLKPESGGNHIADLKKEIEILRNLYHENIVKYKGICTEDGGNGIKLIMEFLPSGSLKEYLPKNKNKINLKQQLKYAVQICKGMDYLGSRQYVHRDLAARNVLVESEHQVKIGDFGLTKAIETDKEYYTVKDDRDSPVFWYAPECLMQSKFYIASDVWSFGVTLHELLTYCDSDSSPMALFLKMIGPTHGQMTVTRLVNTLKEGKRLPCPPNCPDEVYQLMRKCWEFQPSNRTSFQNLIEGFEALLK

Target: Flag-JAK1-JH1 (JAK1 JH1 tyrosine kinase domain) (human) (UniProt P23458)
Experiment: co-IP; Flag-IP (anti-Flag agarose beads) from 1 mg lysate of HEK293T cells transfected with the indicated constructs, 3-4 h at 4 °C, washed three times with NETN buffer (20 mM Tris pH 8.0, 100 mM NaCl, 1 mM EDTA, 0.5% NP-40), immunoblot; cells with or without SN-38 (1 μM, 24 h)

HA-JAK1-JH2 (JAK1 JH2 pseudokinase domain) (from UniProt P23458 545-855) (domain or fragment)
binding: binds
